In paper PMC7862700:
The list shows a part of the results, in another mix than the full data. For part of these data: At the low end of the ranking the order means little. The list shows a part of the results. For part of these data: The exact form of the protein is not confirmed.

The chains behind the UniProt entries cited, without tags or fusion partners. Where a name states a change or a piece, a line headed by the entry shows the natural chain unless it says otherwise.
UniProt P32519: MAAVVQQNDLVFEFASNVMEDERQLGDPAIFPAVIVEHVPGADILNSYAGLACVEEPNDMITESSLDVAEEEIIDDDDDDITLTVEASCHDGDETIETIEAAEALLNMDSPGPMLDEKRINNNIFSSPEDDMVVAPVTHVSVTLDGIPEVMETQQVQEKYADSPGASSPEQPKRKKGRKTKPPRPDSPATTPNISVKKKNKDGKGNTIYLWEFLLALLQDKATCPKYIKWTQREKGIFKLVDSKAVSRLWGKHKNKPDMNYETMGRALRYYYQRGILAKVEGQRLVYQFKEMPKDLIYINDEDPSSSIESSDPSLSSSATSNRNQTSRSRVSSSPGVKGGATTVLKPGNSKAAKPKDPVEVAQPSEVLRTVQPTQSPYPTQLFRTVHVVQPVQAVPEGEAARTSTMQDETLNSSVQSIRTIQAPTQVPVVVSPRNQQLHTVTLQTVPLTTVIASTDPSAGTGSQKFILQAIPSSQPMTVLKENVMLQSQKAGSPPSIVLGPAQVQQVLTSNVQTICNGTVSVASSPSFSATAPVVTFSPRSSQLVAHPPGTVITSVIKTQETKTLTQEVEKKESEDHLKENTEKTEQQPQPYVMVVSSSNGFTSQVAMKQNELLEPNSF
UniProt P50549: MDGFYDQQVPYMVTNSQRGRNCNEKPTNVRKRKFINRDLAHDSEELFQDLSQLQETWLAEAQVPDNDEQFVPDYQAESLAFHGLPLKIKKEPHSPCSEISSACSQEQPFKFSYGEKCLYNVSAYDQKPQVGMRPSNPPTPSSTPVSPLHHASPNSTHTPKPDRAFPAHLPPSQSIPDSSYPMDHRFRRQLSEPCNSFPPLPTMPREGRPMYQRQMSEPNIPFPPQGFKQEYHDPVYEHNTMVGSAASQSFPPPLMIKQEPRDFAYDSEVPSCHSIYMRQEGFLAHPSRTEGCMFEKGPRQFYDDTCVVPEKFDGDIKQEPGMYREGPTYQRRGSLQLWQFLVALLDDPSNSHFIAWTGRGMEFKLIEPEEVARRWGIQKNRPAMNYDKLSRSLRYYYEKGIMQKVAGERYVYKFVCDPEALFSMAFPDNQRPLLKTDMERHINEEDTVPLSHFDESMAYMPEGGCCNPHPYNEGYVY

What was measured:
Assay in all cases: DAPPL (digital affinity profiling via proximity ligation, sequencing)
Details in all cases: 10 mM Tris-HCl pH 7.5, 50 mM NaCl, 1 mM DTT, 4% glycerol, room temperature, 30 min; GST-TFs on glutathione beads, 16-mer random dsDNA library, 0.1% …; high values mean tight binding; double strand, one strand shown; scale: fold enrichment (6-mer frequency, TF over GST control)
ERG = molecular target: T1, ERG (UniProt P11308)
T1 sequence: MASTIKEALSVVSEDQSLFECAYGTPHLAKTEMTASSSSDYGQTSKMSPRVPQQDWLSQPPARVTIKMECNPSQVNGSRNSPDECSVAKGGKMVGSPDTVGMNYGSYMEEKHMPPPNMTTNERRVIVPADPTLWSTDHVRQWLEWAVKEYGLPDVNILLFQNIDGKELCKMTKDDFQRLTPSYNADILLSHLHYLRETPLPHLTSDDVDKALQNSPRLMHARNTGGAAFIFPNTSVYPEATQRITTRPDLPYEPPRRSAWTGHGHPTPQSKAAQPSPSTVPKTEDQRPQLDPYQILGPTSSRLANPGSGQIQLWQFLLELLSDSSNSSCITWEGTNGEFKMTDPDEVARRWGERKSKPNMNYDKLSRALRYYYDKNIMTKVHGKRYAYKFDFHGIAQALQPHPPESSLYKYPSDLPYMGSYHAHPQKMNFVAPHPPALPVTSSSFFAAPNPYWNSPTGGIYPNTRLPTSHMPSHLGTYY

ELF1 = ELF1 (UniProt P32519)
ELK4 = molecular target: T2, ELK4 (UniProt P28324-2)
T2 sequence: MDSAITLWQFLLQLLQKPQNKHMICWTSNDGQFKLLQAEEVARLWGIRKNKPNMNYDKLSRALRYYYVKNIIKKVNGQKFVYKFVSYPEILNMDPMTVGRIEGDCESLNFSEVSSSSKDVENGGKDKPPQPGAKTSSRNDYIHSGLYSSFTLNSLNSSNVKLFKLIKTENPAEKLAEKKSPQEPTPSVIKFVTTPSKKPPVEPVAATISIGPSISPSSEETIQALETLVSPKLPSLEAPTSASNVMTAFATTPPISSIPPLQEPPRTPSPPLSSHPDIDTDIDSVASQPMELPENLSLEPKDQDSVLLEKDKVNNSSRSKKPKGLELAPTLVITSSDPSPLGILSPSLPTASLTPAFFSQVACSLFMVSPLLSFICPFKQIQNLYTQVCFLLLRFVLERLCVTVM

ETV4 = molecular target: T3, ETV4 (UniProt P43268)
T3 sequence: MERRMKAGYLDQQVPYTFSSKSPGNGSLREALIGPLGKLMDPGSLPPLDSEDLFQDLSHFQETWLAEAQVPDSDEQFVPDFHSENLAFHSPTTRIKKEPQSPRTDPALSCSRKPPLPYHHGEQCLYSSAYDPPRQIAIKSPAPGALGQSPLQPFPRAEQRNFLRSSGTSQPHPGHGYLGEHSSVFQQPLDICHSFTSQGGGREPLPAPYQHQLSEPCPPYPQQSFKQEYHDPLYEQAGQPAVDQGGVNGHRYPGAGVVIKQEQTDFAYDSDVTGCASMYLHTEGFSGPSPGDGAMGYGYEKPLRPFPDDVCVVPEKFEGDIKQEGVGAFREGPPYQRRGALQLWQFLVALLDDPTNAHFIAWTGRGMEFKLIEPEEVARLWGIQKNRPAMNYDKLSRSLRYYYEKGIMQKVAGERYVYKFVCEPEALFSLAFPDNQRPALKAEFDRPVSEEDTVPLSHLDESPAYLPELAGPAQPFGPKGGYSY

ETV1 = ETV1 (UniProt P50549)
ERF = molecular target: T4, ERF (UniProt P50548)
T4 sequence: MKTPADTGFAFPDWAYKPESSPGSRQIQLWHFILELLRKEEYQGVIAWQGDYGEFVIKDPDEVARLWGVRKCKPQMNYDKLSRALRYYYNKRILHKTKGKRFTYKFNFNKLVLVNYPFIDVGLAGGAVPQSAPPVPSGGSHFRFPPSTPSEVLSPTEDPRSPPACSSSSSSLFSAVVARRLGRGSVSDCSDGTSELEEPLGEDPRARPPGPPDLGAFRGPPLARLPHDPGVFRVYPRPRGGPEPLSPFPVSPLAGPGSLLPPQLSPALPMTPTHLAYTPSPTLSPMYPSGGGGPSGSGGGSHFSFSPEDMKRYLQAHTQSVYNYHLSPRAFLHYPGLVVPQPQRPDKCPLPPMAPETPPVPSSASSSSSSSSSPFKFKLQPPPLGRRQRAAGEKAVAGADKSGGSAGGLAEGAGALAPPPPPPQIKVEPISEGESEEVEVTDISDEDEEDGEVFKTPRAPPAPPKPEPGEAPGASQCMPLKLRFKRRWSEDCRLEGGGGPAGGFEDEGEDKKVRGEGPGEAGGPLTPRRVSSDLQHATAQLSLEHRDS

Row | Sequence | binding signal (ERG) | binding signal (ELF1) | binding signal (ELK4) | binding signal (ETV4) | binding signal (ETV1) | binding signal (ERF)
1 | TGCCAG | 0.686 | 0.702 | 0.713 | 0.621 | 0.707 | 0.719
2 | GTTGGG | 0.688 | 0.741 | 0.662 | 0.738 | 0.716 | 0.738
3 | CCACGG | 0.881 | 0.927 | 0.974 | 0.909 | 0.908 | 0.838
4 | CGTGCC | 0.971 | 0.812 | 0.971 | 0.834 | 0.846 | 0.866
5 | GGAAGG | 0.931 | 0.79 | 0.783 | 0.836 | 0.836 | 0.759
6 | CGAGAG | 0.399 | 0.403 | 0.392 | 0.384 | 0.342 | 0.383
7 | GTGAGA | 0.302 | 0.3 | 0.347 | 0.295 | 0.283 | 0.327
8 | GGCGAT | 0.731 | 0.823 | 0.844 | 0.753 | 0.892 | 0.78
9 | GGCGAC | 0.828 | 0.848 | 0.714 | 0.83 | 0.791 | 0.834
10 | GACAGT | 0.45 | 0.452 | 0.521 | 0.439 | 0.461 | 0.461
11 | GCATCA | 0.744 | 0.782 | 0.778 | 0.761 | 0.74 | 0.762
12 | GATCGG | 0.472 | 0.486 | 0.489 | 0.495 | 0.455 | 0.514
13 | GGAGAA | 0.33 | 0.346 | 0.337 | 0.306 | 0.335 | 0.376
14 | AACGAG | 0.794 | 0.805 | 0.844 | 0.796 | 0.787 | 0.785
15 | GACCAG | 0.615 | 0.674 | 0.564 | 0.63 | 0.618 | 0.634
16 | GCGGGC | 0.744 | 0.781 | 0.763 | 0.784 | 0.752 | 0.828
17 | GGAGAC | 0.166 | 0.148 | 0.136 | 0.132 | 0.141 | 0.152
18 | GAACGA | 0.673 | 0.823 | 0.715 | 0.739 | 0.778 | 0.791
19 | CGGCCA | 0.801 | 0.797 | 0.858 | 0.798 | 0.845 | 0.816
20 | AGTCAA | 0.637 | 0.628 | 0.631 | 0.593 | 0.702 | 0.645
21 | AGCGCG | 0.789 | 0.793 | 0.751 | 0.796 | 0.872 | 0.862
22 | CGGGCG | 0.469 | 0.442 | 0.511 | 0.416 | 0.452 | 0.456
23 | CAAAGG | 0.804 | 0.799 | 0.836 | 0.855 | 0.802 | 0.88
24 | GGGAAG | 0.864 | 0.748 | 0.829 | 0.836 | 0.902 | 0.802
25 | GAGCAG | 0.644 | 0.636 | 0.547 | 0.603 | 0.674 | 0.64
26 | AGATAG | 0.803 | 0.829 | 0.782 | 0.799 | 0.923 | 0.893
27 | AAGACG | 0.724 | 0.745 | 0.764 | 0.723 | 0.795 | 0.701
28 | TGAGTT | 0.36 | 0.389 | 0.411 | 0.408 | 0.451 | 0.393
29 | TCGTGT | 0.724 | 0.754 | 0.79 | 0.76 | 0.764 | 0.892
30 | CGGTAG | 0.716 | 0.681 | 0.706 | 0.684 | 0.739 | 0.721

Reformatted: results already given
GTTGGG
  binding signal (ERG) = 0.688
  binding signal (ELF1) = 0.741
  binding signal (ELK4) = 0.662
  binding signal (ETV4) = 0.738
  binding signal (ETV1) = 0.716
  binding signal (ERF) = 0.738
CCACGG
  binding signal (ERG) = 0.881
  binding signal (ELF1) = 0.927
  binding signal (ELK4) = 0.974
  binding signal (ETV4) = 0.909
  binding signal (ETV1) = 0.908
  binding signal (ERF) = 0.838
